Reference: patent US20250109209A1
Residue numbers refer to the chain shown, from its start. These are yes or no findings as the source states them, for the method shown. Some results given as binding are weak or reduced against the parent protein; the word gives no strength.

Sequences of proteins named here, by UniProt entry; tags and fusion partners are left off. A change or cut given only in a name is not applied to a line headed by its entry. A line that says so, or that is headed by a name, gives the form on record, which may keep a tag or linker. Residues count along the entry.
Cyno TL1A (G7PRK8, form named): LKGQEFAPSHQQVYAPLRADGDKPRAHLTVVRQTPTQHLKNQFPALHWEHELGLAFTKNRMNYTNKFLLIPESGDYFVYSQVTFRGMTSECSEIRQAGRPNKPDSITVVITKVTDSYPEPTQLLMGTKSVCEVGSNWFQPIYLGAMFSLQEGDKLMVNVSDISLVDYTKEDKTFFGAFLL
UniProt O95150, residues 72-251: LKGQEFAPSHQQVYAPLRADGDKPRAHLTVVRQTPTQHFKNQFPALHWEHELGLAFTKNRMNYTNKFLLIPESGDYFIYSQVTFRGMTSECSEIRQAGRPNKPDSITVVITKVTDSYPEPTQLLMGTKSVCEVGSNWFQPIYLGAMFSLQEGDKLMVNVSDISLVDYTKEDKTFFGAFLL

B1: Antibody 86 (Fab format) (Fab, V domains shown)
VH: QVQLQESGPGLVRPSQTLSLTCTVSGFDIQDTYMHWVRQRPGRGLEWMGRIEPAGGHTKYNPSLKSRVTITRDTSKNQVSLRLSSVTAADTAVYYCASSGGMPDLWGQGSLVTVSS
VL: DIQMTQSPSSLSASVGDRVTITCRASSSVSYMYWYQQKPGKAPKLLIYGASNLASGVPSRFSGSGSGTDFTFTISSLQPEDIATYYCQQWEGNPRTFGQGTKVEIK
B2: Antibody 88 (Fab format) (Fab, V domains shown)
VH: B1 VH with I29L, M34I, E52D, G55S, T58V, S98R, P103T, L105Y
VL: B1 VL with S27F, S30D, L45D, G49A, A50T, T96S
B3: Antibody 89 (Fab format) (Fab, V domains shown)
VH: B1 VH with G55S, S98A, L105M
VL: B1 VL
B4: Antibody 94 (Fab format) (Fab, V domains shown)
VH: B1 VH with E52D, G55S, A97G, S98R, P103M
VL: B1 VL
B5: Antibody 95 (Fab format) (Fab, V domains shown)
VH: B1 VH with Q30T, A97V, S98R, M102L, L105V
VL: B1 VL with S27Q, S28G, S30M
B6: Antibody 96 (Fab format) (Fab, V domains shown)
VH: B1 VH with Q30T, A97V, S98R, M102L, L105V
VL: B1 VL with S27Q, S28G, S30G, G49A, A50T
B7: Antibody 100 (Fab format) (Fab, V domains shown)
VH: B1 VH with Q30T, A97V, S98R, M102L, L105V
VL: B1 VL with S27Q, S28G, S30E, G49A, A50T
B8: Antibody 18 (Fab format) (Fab, V domains shown)
VH: B1 VH with I29M, Q30G, A97V, S98R, L105V
VL: B1 VL with G49Y
B9: Antibody 19 (Fab format) (Fab, V domains shown)
VH: B1 VH with Q30T, A97V, S98R, M102L, L105V
VL: B1 VL with S27Q, S28G, S30E, G49Y
B10: Antibody 20 (Fab format) (Fab, V domains shown)
VH: B1 VH with G55S, S98R, L105M
VL: B1 VL with S27Q, S28G, S30M
B11: Antibody 24 (Fab format) (Fab, V domains shown)
VH: B1 VH with A97V, S98R, M102L, L105A
VL: B1 VL with S27Q, S28G, S30G, G49A, A50T
B12: Antibody 27 (Fab format) (Fab, V domains shown)
VH: B1 VH with A97V, S98R, M102L, L105A
VL: B1 VL with S27Q, S28G, S30R, G49A, A50T
B13: Antibody 30 (Fab format) (Fab, V domains shown)
VH: B1 VH with A97V, S98R, M102L, L105A
VL: B1 VL with G49S
B14: Antibody 33 (Fab format) (Fab, V domains shown)
VH: B1 VH with A97V, S98R, M102L, L105A
VL: B1 VL with S27Q, S28G, S30E, G49A, A50T
B15: Antibody 34 (Fab format) (Fab, V domains shown)
VH: B1 VH with F27L, I29P, Q30D, A97V, S98I, M102L, L105V
VL: B1 VL with S27Q, S28G, V29I, S30Y, G49A, A50T
B16: Antibody 39 (Fab format) (Fab, V domains shown)
VH: B1 VH with A97V, S98R, M102L, L105A
VL: B1 VL with G49A, A50T
B17: Antibody 41 (Fab format) (Fab, V domains shown)
VH: B1 VH with Q30T, A97V, S98R, M102L, L105V
VL: B1 VL with G49S
B18: Antibody 42 (Fab format) (Fab, V domains shown)
VH: B1 VH with Q30T, A97V, S98R, M102L, L105V
VL: B1 VL with S27Q, S28G, S30G
B19: Antibody 45 (Fab format) (Fab, V domains shown)
VH: B1 VH with Q30E, G55S, S98I, M102V, L105V
VL: B1 VL with G49A, A50T
B20: Antibody 51 (Fab format) (Fab, V domains shown)
VH: B1 VH with A97V, S98R, M102L, L105A
VL: B1 VL with S27Q, S28G, S30E
B21: Antibody 53 (Fab format) (Fab, V domains shown)
VH: B1 VH with G55S, S98R, P103M, L105R
VL: B1 VL with S27Q, S28G, S30R
B22: Antibody 59 (Fab format) (Fab, V domains shown)
VH: B1 VH with Q30T, A97V, S98R, M102L, L105V
VL: B1 VL
B23: Antibody 60 (Fab format) (Fab, V domains shown)
VH: B1 VH with Q30T, A97V, S98R, M102L, L105V
VL: B1 VL with G49A, A50T
B24: Antibody 61 (Fab format) (Fab, V domains shown)
VH: B1 VH with G55S, S98A, L105M
VL: B1 VL with S27Q, S28G, S30E
B25: Antibody 64 (Fab format) (Fab, V domains shown)
VH: B1 VH with A97V, S98R, M102L, L105A
VL: B1 VL with S27Q, S28G, S30E, G49Y
B26: Antibody 66 (Fab format) (Fab, V domains shown)
VH: B1 VH with A97V, S98R, M102L, L105A
VL: B1 VL with S27Q, S28G, S30E, G49S
B27: Antibody 69 (Fab format) (Fab, V domains shown)
VH: B1 VH with A97V, S98R, M102L, L105A
VL: B1 VL with S27Q, S28G, V29I, S30Y, G49A, A50T
B28: Antibody 73 (Fab format) (Fab, V domains shown)
VH: B1 VH with G55S, S98A, L105M
VL: B1 VL with S27Q, S28G, S30E, G49S
B29: Antibody 79 (Fab format) (Fab, V domains shown)
VH: B1 VH with Q30E, G55S, S98I, M102V, L105V
VL: B1 VL
B30: Antibody 81 (Fab format) (Fab, V domains shown)
VH: B1 VH with Q30T, A97V, S98R, M102L, L105V
VL: B1 VL with S27Q, S28G, V29I, S30Y

How the values were obtained:
[1] = target: Cyno TL1A (cyno) (UniProt G7PRK8); assay: SPR, Fab format
[2] = target: human TL1A (human) (UniProt O95150); assay: SPR, Fab format

| Binder | binding [1] | binding [2] |
| --- | --- | --- |
| B1 | binds | binds |
| B2 | binds | binds |
| B3 | binds | binds |
| B4 | binds | binds |
| B5 | binds | binds |
| B6 | binds | binds |
| B7 | binds | binds |
| B8 | binds | – |
| B9 | binds | – |
| B10 | binds | – |
| B11 | binds | – |
| B12 | binds | – |
| B13 | binds | – |
| B14 | binds | – |
| B15 | binds | – |
| B16 | binds | – |
| B17 | binds | – |
| B18 | binds | – |
| B19 | binds | – |
| B20 | binds | – |
| B21 | binds | – |
| B22 | binds | binds |
| B23 | binds | binds |
| B24 | binds | binds |
| B25 | binds | binds |
| B26 | binds | binds |
| B27 | binds | binds |
| B28 | binds | binds |
| B29 | binds | binds |
| B30 | binds | binds |
